Assay results: patent publication US20140186354A1 (published 2014)
No constants are given. Whether binding was seen depends on the method and setting. Some entries that bind do so weakly or less than the wild type.

Molecular target: T1, TtSlyD-FKBP-Her3
T1 sequence: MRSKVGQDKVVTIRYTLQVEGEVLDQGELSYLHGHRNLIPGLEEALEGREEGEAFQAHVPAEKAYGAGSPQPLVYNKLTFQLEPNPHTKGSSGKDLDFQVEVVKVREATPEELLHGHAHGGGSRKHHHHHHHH
Assay: SPR Biacore 4000 kinetic screening

B1: anti-HER3/HER4 antibody M-05-74 (antibody, V domains shown)
VH: QVQLQQSGAELAKPGASVKMSCKTSGYTLTDYWIHWVKQRPGQGLEWIGYINPYTGYTESNQKFKDKATLTADKSSNTAYIQLSSLTSEDSAVYYCARPYYYGDYWGQGTTLTVSS
VL: QIVLTQSPAIMSASPGERVTITCSASSSVSYMHWFQQKPGTSPKLLIYSTSNLASGVPARFSGSGSGTSYSLTISRMEAEDAATYYCQQRSSYPFTFGSGTKLEIK
notes: Murine monoclonal antibody from hybridoma (supernatant or purified full length); also called M-074; M-5-74
binding: binds
